Some of these results come from one statement about several compounds together. At least one structure is not confirmed: it was looked up by name or label, or the drawing left a doubt.
Biological target: T1, PMN LTB4 receptor (Homo sapiens, UniProt Q15722)
T1 construct: endogenous in cells; host or cells: human neutrophils (PMN) isolated from heparinized blood
Assay: LTB4 Human Neutrophil (PMN) Binding Assay
Conditions: competition with [3H]LTB4 (1 nM), 10 min at 4° C.

Sequences of proteins named here, by UniProt entry; tags and fusion partners are left off. A change or cut given only in a name is not applied to a line headed by its entry.
UniProt Q15722: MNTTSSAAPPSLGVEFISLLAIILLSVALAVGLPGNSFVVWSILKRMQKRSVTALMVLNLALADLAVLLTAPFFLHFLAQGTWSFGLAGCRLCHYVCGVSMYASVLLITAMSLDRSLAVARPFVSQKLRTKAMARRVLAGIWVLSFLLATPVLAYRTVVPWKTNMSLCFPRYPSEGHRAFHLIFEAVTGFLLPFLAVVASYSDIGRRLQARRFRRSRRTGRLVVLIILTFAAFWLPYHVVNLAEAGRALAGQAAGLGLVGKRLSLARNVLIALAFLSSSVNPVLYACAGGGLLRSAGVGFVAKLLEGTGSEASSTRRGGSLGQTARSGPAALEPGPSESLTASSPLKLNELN

Row | result in the LTB4 human neutrophil binding assay | Compound
1 | active | 2-(2-Aza-2-((5-(N-(5-(4-(5-(4,6-diphenyl(2-pyridyloxy))-1,1-dimethylpentyl)(1,2,3,5-tetraazolyl))pentanoylamino)-1-(6-deoxy-β-cyclodextryl)carbamoyl)pentyl)carbamoyl)(2-pyridyl))amino)vinyl)benzenesulfonic Acid [Example 28]
2 | active | CCc1cc(-c2ccc(F)cc2)c(O)cc1OCCCCC(C)(C)CNC(=O)c1ccc(N/N=C/c2ccccc2S(=O)(=O)O)nc1 [Example 1, 4-ethyl-2-(4-fluorophenyl)-[5-[5,5-dimethyl-6-[[6-[[[(2-sulfonylphenyl)methylene]hydrazino]-3-pyridinyl]carbonyl]amino]hexyl]oxy]phenol]
3 | active | CCc1cc(-c2ccc(F)cc2)c(O)cc1OCCCCNC(=O)c1ccc(N/N=C/c2ccccc2S(=O)(=O)O)nc1 [Example 2, 4-ethyl-2-(4-fluorophenyl)-[5-[4-[[6-[[[(2-sulfonylphenyl)methylene]hydrazino]-3-pyridinyl]carbonyl]amino]butyl]oxy]phenol]
4 | active | O=C(CCCCCOc1cc(-c2ccccc2)cc(-c2ccccc2)n1)NC(Cc1ccc(OCCCNC(=O)c2ccc(N/N=C/c3ccccc3S(=O)(=O)O)nc2)cc1)C(=O)O (centres unmarked) [Example 6, 2-[[[5-[[N-[6-[(4,6-diphenyl-2-pyridinyl)oxy]-hexanoyl]-tyrosine-O-[3-propanamino]]carbonyl]-2-pyridinyl]hydrazono]-methyl]-benzenesulfonic acid]
5 | active | CCc1cc(-c2ccc(F)cc2)c(O)cc1OCCCCC(C)(C)CNC(=O)c1ccc(CN(CCS)CC(=O)NCCS)cc1 [Example 9, 4-ethyl-2-(4-fluorophenyl)-5-[(5,5-dimethyl-6-aminohexyl)oxy]phenol N-[4-(carboxy)benzyl]-N,N′-bis[2-thioethyl]-glycinamide Conjugate]
6 | active | CCc1cc(-c2ccc(F)cc2)c(O)cc1OCCCCCC(C)(C)CNC(=O)c1ccc(N/N=C/c2ccccc2S(=O)(=O)O)nc1 [Example 12, 4-ethyl-2-(4-fluorophenyl)-[5-[6,6-dimethyl-7-[[6-[[[(2-sulfonylphenyl)methylene]hydrazino]-3-pyridinyl]carbonyl]amino]heptyl]oxy]phenol]
7 | active | CCc1cc(-c2ccn[nH]2)c(O)cc1OCCCCC(C)(C)CNC(O)c1ccc(N/N=C/c2ccccc2S(=O)(=O)O)nc1 (centres unmarked) [Example 13]
8 | active | CCc1cc(-c2ccc(F)cc2)c(O)cc1OCCCCC(C)(C)CNC(=O)c1ccc(N/N=C/c2ccccc2)nc1 [Example 16, 4-ethyl-2-(4-fluorophenyl)-[5-[6,6-dimethyl-7-[[6-[[[phenylmethylene]hydrazino]-3-pyridinyl]carbonyl]amino]heptyl]oxy]phenol]
9 | active | CN(CCc1ccccc1)C(=O)Cn1cc(/C=C/[C@@H](O)NS(=O)(=O)c2ccc(N/N=C/c3ccccc3)nc2)c2cc(OCc3ccccc3)ccc21 [Example 17, N-((6-((1-aza-2-phenylvinyl)amino)(3-pyridyl))sulfonyl)-3-(1-((N-(2-phenylethyl)carbamoyl)methyl)-5-(phenylmethoxy)indol-3-yl)prop-2-enamide]
10 | active | CCCc1c(OCCCOc2cc(O)c(-c3ccc(F)cc3)cc2CC)ccc2c1OC(C(=O)NCCCOC(=O)C(C)NC(=O)c1ccc(N/N=C/c3ccccc3S(=O)(=O)O)nc1)CC2 (centres unmarked) [Example 19]
11 | active | O=C(/C=C/c1nc(CSc2ccccc2)ccc1OCCc1ccccc1)NCCCNC(=O)c1ccc(N/N=C/c2ccccc2S(=O)(=O)O)nc1 [Example 40, 2-Sulfobenzaldehyde (E)-N-[3-(6-Hydrazinonicotinamido)propyl]-3-[6-[(phenylthio)methyl]-3-(2-phenylethoxy)-2-pyridinyl]-2-propenamide Hydrazone]
12 | active | O=C(NCCCNC(=O)C1(c2ccc3c(c2)OCC(Cc2ccc(-c4ccccc4)cc2)=C3)CCCC1)c1ccc(N/N=C/c2ccccc2S(=O)(=O)O)nc1 [Example 46, 2-Sulfobenzaldehyde N-[3-(6-Hydrazinonicotinamido)propyl]-1-[3-([1,1′-biphenyl]-4-ylmethyl)-2H-1-benzopyran-7-yl]-cyclopentanecarboxamide Hydrazone]
13 | active | CCc1cc(C(C)=O)c(O)cc1OCCCCCCNC(=O)c1ccc(N/N=C/c2ccccc2S(=O)(=O)O)nc1 [Example 57, 2-Acetyl-4-ethyl-[5-[6-[[6-[[[(2-sulfonylphenyl)methylene]hydrazino]-3-pyridinyl]carbonyl]amino]hexyl]oxy]phenol]
14 | active | CCc1cc(CC)c(OCCCCC(C)(C)CNC(=O)c2ccc(N/N=C/c3ccccc3S(=O)(=O)O)nc2)cc1O [Example 58, 2,4-Diethyl-[5-[5,5-dimethyl-6-[[6-[[[(2-sulfonylphenyl)methylene]hydrazino]-3-pyridinyl]carbonyl]amino]hexyl]oxy]phenol]
15 | active | O=C(O)CC(NC(=O)c1cccc(NN=Cc2ccccc2S(=O)(=O)O)n1)C(=O)NC(Cc1ccccc1OCCCCCOc1cc(-c2ccccc2)cc(-c2ccccc2)n1)C(=O)O (centres unmarked) [Example 67]
16 | active | CC(C)(CCCCOc1cc(-c2ccccc2)cc(-c2ccccc2)n1)CNC(=O)C(CNC(=O)CCNC(=O)NC1OC(CO)C(O)C(O)C1O)NC(=O)c1cccc(NN=Cc2ccccc2S(=O)(=O)O)n1 (centres unmarked) [Example 72]
17 | active | CC(C)(NC(=O)CCCOc1cc(-c2ccccc2)cc(-c2ccccc2)n1)C(=O)N[C@@H](Cc1ccc(O)cc1)[C@@H](O)NS(=O)(=O)c1ccc(NN)nc1 [Example 77, 4-(4,6-diphenyl(2-pyridyloxy))-N-(1-(N-(1-(N-((6-hydrazino(3-pyridyl))sulfonyl)cabamoyl)-2-(4-hydroxyphenyl)ethyl)-carbamoyl)-isopropyl)butanamide]
18 | active | C=CCc1c(OCCCCCC(=O)NC(NC(=O)c2ccc(NN=Cc3ccccc3S(=O)(=O)O)nc2)C(=O)O)ccc2c1CCCC2=O (centres unmarked) [Example 81]
19 | active | C=CCc1c(OCCCCC(C)(C)C(=O)NC(NC(=O)c2ccc(NN=Cc3ccccc3S(=O)(=O)O)nc2)C(=O)O)ccc2c1CCCC2=O (centres unmarked) [Example 82]
20 | active | CCc1cc(-c2ccccc2)c(O)cc1OCCCCC(C)(C)CNC(=O)[C@H](CC(=O)O)NC(=O)c1ccc(N/N=C/c2ccccc2S(=O)(=O)O)nc1 [Example 83]
